Values joined by “and” are separate entries in the source; they are usually repeats but may differ in a detail not shown here. Equal values may be shown once. Read-outs that look alike come from different tables or passages of the source. Not every detail of the peptide structures is certain; ends, links or a residue may be inferred. Marks after values point to notes of the source that are not given here. Where no end group is shown, it is not given here.
Tests used:
[1] = system: Daboia russelli siamensis venom; assay type: in vivo, mice; settings: Table 9; for Oedema: mean ± SD (n = 4)
Daboiatoxin PLA2 = Daboiatoxin PLA2 (Daboia siamensis, UniProt Q7T2R1+Q7T3T5); set-up: species or system mice; settings: mouse, in vivo
[2] = biological target: Bee venom (Apis melifera) PLA2 (Apis mellifera, UniProt P00630); set-up: species or system mice; settings: mouse, in vivo
[3] = system: male Sprague-Dawley rats, incisional hernia model; assay type: in vivo, rat
tissue phospholipase A2 = settings: rat, in vivo
[4] = DRS venom 5 μg + 50 μg inhibitor
[5] = DRS venom 5 μg + 100 μg inhibitor

The chains behind the UniProt entries cited, without tags or fusion partners. Residues count along the entry.
UniProt Q7T2R1, 17-138 limits assumed: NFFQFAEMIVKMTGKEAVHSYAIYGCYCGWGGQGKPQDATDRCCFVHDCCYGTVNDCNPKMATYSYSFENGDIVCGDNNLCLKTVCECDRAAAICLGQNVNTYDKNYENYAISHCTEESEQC
UniProt Q7T3T5, 9-130 limits assumed: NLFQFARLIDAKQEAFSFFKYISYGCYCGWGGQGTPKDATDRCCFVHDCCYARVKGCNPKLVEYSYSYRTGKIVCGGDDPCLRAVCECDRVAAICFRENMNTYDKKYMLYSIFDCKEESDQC
UniProt P00630, 34-167 limits assumed: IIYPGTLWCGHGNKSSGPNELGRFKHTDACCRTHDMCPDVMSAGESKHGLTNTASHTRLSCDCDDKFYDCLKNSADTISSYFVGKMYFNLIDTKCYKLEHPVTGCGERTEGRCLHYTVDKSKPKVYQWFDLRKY

Row | Sequence | % Inhibition [1, 4] | Oedema [1, 4] | % Inhibition [1, 5] | Oedema [1, 5] | % Inhibition (Daboiatoxin PLA2) | Anti-Inflammatory Activity (Daboiatoxin PLA2) | Oedema (Daboiatoxin PLA2) | % Inhibition [2] | Oedema [2] | Adhesion Score Mean ± SD ([3]; n = 6) | Grade (adhesion, individual rats) ([3]; rat, in vivo, ip) | tissue PLA2 activity after surgery (tissue phospholipase A2)
1 | PGLPLSLQNG [P-0029] | 58.9 ± 2.9 (P < 0.01) % | 48 ± 3 mg | 71.1 ± 5.5 (P < 0.01) % | 33 ± 6 mg | 62.1 ± 4.0 (P < 0.01) % and 79.0 ± 3.6 (P < 0.01) % | (++) strong | 63 ± 7 mg and 35 ± 6 mg | 51.7 ± 4.2 (P < 0.01) % and 63.8 ± 4.8 (P < 0.01) % | 42 ± 4 mg and 31 ± 4 mg | 2.00 ± 0.82^c | 1 (2×) and 2 (2×) and 3 (2×) | significantly lower
2 | PLPGLPLSKP [P-0009] | 21.1 ± 14.8 (P > 0.1) % | 92 ± 17 mg | 29.3 ± 4.6 (P < 0.05) % | 82 ± 5 mg | 25.7 ± 5.9 (P < 0.01) % and 33.6 ± 11.2 (P < 0.01) % | (+) weak | 124 ± 10 mg and 110 ± 19 mg | – | 82 ± 5 mg and 72 ± 5 mg | – | – | –

Reference: patent US7094575B2 (priority 1999, dated 2006)
